From article PMC7819943, “Rice protein-binding microarrays: a tool to detect cis-acting elements near promoter regions in rice”
The other results are listed elsewhere or left out.

Chains of the proteins cited; added tags and fusions are not shown.
UniProt Q0JBA9, entry or part of it: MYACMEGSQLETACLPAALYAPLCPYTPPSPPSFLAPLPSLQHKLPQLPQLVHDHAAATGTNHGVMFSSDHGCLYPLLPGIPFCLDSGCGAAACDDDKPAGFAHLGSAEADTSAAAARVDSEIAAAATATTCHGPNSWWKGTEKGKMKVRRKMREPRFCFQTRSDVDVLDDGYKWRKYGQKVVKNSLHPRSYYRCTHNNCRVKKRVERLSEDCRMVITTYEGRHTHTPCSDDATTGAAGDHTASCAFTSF

Target: OsWRKY34 (Oryza sativa, UniProt Q0JBA9 1-250)
Assay: protein-binding microarray (RPBM); PBS, 2% BSA, 51.3 ng/ul salmon testes DNA, 50 uM zinc acetate, 200 nM TF, 25 C, 1 h; high values mean tight binding
Conditions: protein: recombinant; tags: N-terminal polyhistidine and DsRed monomer fusion (pET32a); label: CyDye5-dUTP incorporated in the synthesized complementary strand; 3' TTTTT single-stranded linker to array surface; dsDNA, one strand shown
Procedure, shortened: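 In PBS with 2% BSA, salmon testes DNA and 50 µM zinc acetate, 200 nM protein was incubated on a custom Agilent array at 25 °C for 1 h and then washed off. The array had been made double-stranded by primer extension with Cy5-dUTP and blocked with 2% BSA. The proteins were transcription factors fused N-terminally to polyhistidine and DsRed, expressed in E. coli BL21-CodonPlus and purified on Ni–NTA. The binding signal is per-feature fluorescence intensity (arbitrary units) from an Axon 4000B scanner.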

Sequence	binding signal
TTGCTTATGGTGTTGCTGCTGGTCTATAAATTCATGTACACGGAGTCACCTAGTGCAG	9330 fluorescence intensity (a.u.)
GTCTGTACCGTCCCCGCGCCGACTCGAGGGCAGAGAGCTCCGGAGTCACCTAGTGCAG	8330 fluorescence intensity (a.u.)
CATACCCATATAATTGACTTGTAGCATTTATAGTTTTGTACGGAGTCACCTAGTGCAG	10100 fluorescence intensity (a.u.)
TAGCTATTATCCGTCCGAATCCGCTCTGTTTTCACCCCTACGGAGTCACCTAGTGCAG	9590 fluorescence intensity (a.u.)
ATTCGATTCGCTATTTAATGTGGTGTGGTTTTCTTCTCCGCGGAGTCACCTAGTGCAG	9140 fluorescence intensity (a.u.)
CCGTTCGCCACGTCCATCCGTTTTCTGTGCCATAGGCAGGCGGAGTCACCTAGTGCAG	9340 fluorescence intensity (a.u.)
CGCTTCCCAACTATCAAATCTGCACCATCCATTCCTCATCCGGAGTCACCTAGTGCAG	8420 fluorescence intensity (a.u.)
GTGCTTCTGAGAACTCAAGGCTTGTCATGGCTATCTTACTCGGAGTCACCTAGTGCAG	9070 fluorescence intensity (a.u.)
TAGTATCATCAGTTCATCACCAACCTCTCTCTCGTCTTCTCGGAGTCACCTAGTGCAG	8080 fluorescence intensity (a.u.)
TGGCACACTCCCTTGGCAACTCTTAATTACACGTGAGCTACGGAGTCACCTAGTGCAG	8510 fluorescence intensity (a.u.)
CAGTTGTTATATGTACCCAAAGATTCGGCCATTGCATCCACGGAGTCACCTAGTGCAG	8190 fluorescence intensity (a.u.)
ATATATATAATCTTCATGGTCATCTCGATCACTTGTTTGACGGAGTCACCTAGTGCAG	9720 fluorescence intensity (a.u.)
CCTTGTTGGATCTCTCTGGCTCATGTTTCTGCTCAGCTCACGGAGTCACCTAGTGCAG	9130 fluorescence intensity (a.u.)
TGATGTTTTTTTTACTGTGTTCTCTTGCAGAATAGCTCTCCGGAGTCACCTAGTGCAG	12000 fluorescence intensity (a.u.)
GGCTCGCGGAGGGCGGGGCTGGGATGGTGGCGGATGGGAGCGGAGTCACCTAGTGCAG	10800 fluorescence intensity (a.u.)
TTACCTCCATGCCACATCTCTCTCTCTAGCTTGTCTATGTCGGAGTCACCTAGTGCAG	8090 fluorescence intensity (a.u.)
ACCCTGCACATTCTCGTTGCTATTGTGTACTTATTTTGGACGGAGTCACCTAGTGCAG	9650 fluorescence intensity (a.u.)
CCGTCTCCGCCGCCCCGCCCTCCTCCTCGCCGGCGGCGCTCGGAGTCACCTAGTGCAG	8250 fluorescence intensity (a.u.)
TCACACCTCATTTAATCCTAGCTATTTATCCATTTCCTTTCGGAGTCACCTAGTGCAG	9890 fluorescence intensity (a.u.)
CTCCTGGCAACCCCATGCACTGCTTTTGCTGCCCTTAAGTCGGAGTCACCTAGTGCAG	8620 fluorescence intensity (a.u.)
AGATCCAAACACGTCACAATATACCATCACTGCGGCCGCCCGGAGTCACCTAGTGCAG	8210 fluorescence intensity (a.u.)

Rewritten as labelled records: part of the list above
TGATGTTTTTTTTACTGTGTTCTCTTGCAGAATAGCTCTCCGGAGTCACCTAGTGCAG
  binding signal = 12000 fluorescence intensity (a.u.)
GGCTCGCGGAGGGCGGGGCTGGGATGGTGGCGGATGGGAGCGGAGTCACCTAGTGCAG
  binding signal = 10800 fluorescence intensity (a.u.)
TTACCTCCATGCCACATCTCTCTCTCTAGCTTGTCTATGTCGGAGTCACCTAGTGCAG
  binding signal = 8090 fluorescence intensity (a.u.)

Remaining list, next part.

Sequence	binding signal
CGTGTGGTTGATTGTGTGTGCGAGCCGAATGCTGCCTACTCGGAGTCACCTAGTGCAG	9260 fluorescence intensity (a.u.)
TCCGTGATTCAGTCATTCTCCCTGGTTCAGTCCATTCTCACGGAGTCACCTAGTGCAG	10800 fluorescence intensity (a.u.)
TTATTGCTCGCAGTTCTTGCTGGGTGGTGGTGGTGGTTCACGGAGTCACCTAGTGCAG	11300 fluorescence intensity (a.u.)
TCCTGTCCAGTCTCCACTCGCAAACCCTTCTCGCCGCCATCGGAGTCACCTAGTGCAG	10400 fluorescence intensity (a.u.)
GTCACGCGCGCGCACGCACGCACGCGGCTTTGGGTTTTTTCGGAGTCACCTAGTGCAG	8260 fluorescence intensity (a.u.)
CCCTTCTTATCCTCTTCTTGATGCTAATTTACCGTCTTTCCGGAGTCACCTAGTGCAG	8740 fluorescence intensity (a.u.)
ATACTATTATATCGGGCCTCCACGGAGAGCGGGGACGGGGCGGAGTCACCTAGTGCAG	8700 fluorescence intensity (a.u.)
GCCCCATCGCCGCCGGCCTCTCCTCCTCCTCCCACTATATCGGAGTCACCTAGTGCAG	8690 fluorescence intensity (a.u.)
TCTCCTCCTGACAGCTAAGCACCAAACCATCACTTCACTCCGGAGTCACCTAGTGCAG	8640 fluorescence intensity (a.u.)
CCCGTCGCTTGCCAGTTCACCCCAACATCCCAGAAATTCACGGAGTCACCTAGTGCAG	8610 fluorescence intensity (a.u.)
TGTACGGCATGCGTCTGTTTGGTCTTTGGAGCCTCGACTGCGGAGTCACCTAGTGCAG	8820 fluorescence intensity (a.u.)
TTCGTCACCTCGCCGGCTATAAAACCCGCTCGCTGCGCCTCGGAGTCACCTAGTGCAG	11000 fluorescence intensity (a.u.)
GCTTTATCGTGCAAACACCTAAGCTGATAAAGGCAAAGGTCGGAGTCACCTAGTGCAG	23200 fluorescence intensity (a.u.)
TCCGTCACATCGAACTTTCCTACACACAAATTTTCAATTTCGGAGTCACCTAGTGCAG	9370 fluorescence intensity (a.u.)
TCCATTGTTTCCTCGGCATGCAATCTTTTTCACTAATTCTCGGAGTCACCTAGTGCAG	11800 fluorescence intensity (a.u.)
TCAGTACTACCTTCTGCATCTTTGAGCTTCATCTGATTTTCGGAGTCACCTAGTGCAG	8980 fluorescence intensity (a.u.)
CTGCCGCCGCTCCGTGTCATCGCGGCCGTCCATTTAGAACCGGAGTCACCTAGTGCAG	8540 fluorescence intensity (a.u.)
ACCATCGTAGTATCGACTTGTACAATTGAATCTCACATTCCGGAGTCACCTAGTGCAG	10200 fluorescence intensity (a.u.)
TGGGCTATGGGCATGTATTGAAGGGTCCTGCAGTTATAATCGGAGTCACCTAGTGCAG	10100 fluorescence intensity (a.u.)
CTATAATTATTTGTCGACTAAATCTGCCTTTCATCTTTCTCGGAGTCACCTAGTGCAG	8160 fluorescence intensity (a.u.)
AGTCTTTCATCATTTATCTTTTGGCTCATCAACCGCTACCCGGAGTCACCTAGTGCAG	8990 fluorescence intensity (a.u.)
